We go through one compound from US10829452B2, “Histone methyltransferase inhibitors” (GLOBAL BLOOD THERAPEUTICS, INC., priority 2016, dated 2020).

Sequences of proteins named here, by UniProt entry; tags and fusion partners are left off.
UniProt Q96KQ7, whole entry: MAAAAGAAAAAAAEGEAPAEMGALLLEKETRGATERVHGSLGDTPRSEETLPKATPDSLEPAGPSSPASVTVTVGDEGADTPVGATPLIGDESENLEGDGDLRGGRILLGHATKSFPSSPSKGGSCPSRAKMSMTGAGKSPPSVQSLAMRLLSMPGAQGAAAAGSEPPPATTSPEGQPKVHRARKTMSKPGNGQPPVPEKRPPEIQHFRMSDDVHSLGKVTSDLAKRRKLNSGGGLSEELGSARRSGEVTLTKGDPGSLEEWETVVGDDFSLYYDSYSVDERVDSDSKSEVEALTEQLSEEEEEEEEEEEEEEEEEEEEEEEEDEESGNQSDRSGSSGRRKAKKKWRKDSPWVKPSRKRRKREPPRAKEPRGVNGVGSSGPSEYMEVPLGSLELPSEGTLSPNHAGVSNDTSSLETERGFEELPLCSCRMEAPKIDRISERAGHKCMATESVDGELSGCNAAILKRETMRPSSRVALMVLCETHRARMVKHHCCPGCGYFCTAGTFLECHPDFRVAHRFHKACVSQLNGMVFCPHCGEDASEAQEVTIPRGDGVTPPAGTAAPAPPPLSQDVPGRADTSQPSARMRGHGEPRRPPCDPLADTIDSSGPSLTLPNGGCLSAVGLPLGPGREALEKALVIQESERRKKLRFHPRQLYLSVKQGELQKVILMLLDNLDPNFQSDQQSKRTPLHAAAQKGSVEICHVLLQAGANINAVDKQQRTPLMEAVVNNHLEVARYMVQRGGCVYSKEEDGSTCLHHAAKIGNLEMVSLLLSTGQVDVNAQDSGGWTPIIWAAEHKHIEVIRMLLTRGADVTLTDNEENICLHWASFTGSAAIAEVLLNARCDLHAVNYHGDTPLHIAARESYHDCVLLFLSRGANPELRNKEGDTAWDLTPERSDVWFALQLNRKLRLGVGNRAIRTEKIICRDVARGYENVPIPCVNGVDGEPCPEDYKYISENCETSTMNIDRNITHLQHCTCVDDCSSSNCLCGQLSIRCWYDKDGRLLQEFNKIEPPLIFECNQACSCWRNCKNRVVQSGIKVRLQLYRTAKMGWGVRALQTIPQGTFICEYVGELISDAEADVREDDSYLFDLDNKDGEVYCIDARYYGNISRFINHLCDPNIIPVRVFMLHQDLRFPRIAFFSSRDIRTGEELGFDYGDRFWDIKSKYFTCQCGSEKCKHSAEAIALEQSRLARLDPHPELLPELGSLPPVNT

The assay addresses G9a (Homo sapiens, UniProt Q96KQ7). In words: G9a AlphaLISA enzymatic activity assay. As to conditions: read-out: G9a in (uM) (IC50, concentration that produced 50% inhibition); 0.15 nM G9a, 15 uM S-adenosyl-methionine, 100 nM biotinylated histone 3 peptide (1-21), 1 hour at room temperature; tested form: formate; Formate Salt. From the text: The G9a AlphaLISA assay was used to detect the methyl modifications of a biotinylated histone H3 peptide by the compounds. These modifications are done by the histone methyl transferase activity of the G9a enzyme. The assay consists of reading a chemiluminescent signal at 615 nm; this signal is generated by a laser excitation at 680 nm that transfers a reactive singlet oxygen between the donor beads and acceptor beads. Donor beads are streptavidin conjugated and bind to the biotin on the peptide. Acceptor beads are conjugated with an antibody that recognizes the specific G9a methyl mark on the peptide. If there is a methyl mark on the peptide, the acceptor beads will bind to the peptide. Upon binding, the acceptor beads will be in close proximity (<200 nm) of the donor beads and when the donor beads are excited, the transfer of the oxygen can occur and a strong signal will be generated. […]
For the assay, the following buffer was used to set up reactions: 50 mM Tris-HCl pH9, 50 mM NaCl, 0.01% Tween-20 and 1 mM DTT (added fresh prior to starting the reactions). […] Signal is detected in an EnVision plate reader in Alpha mode (see ACS Med Chem Lett. 2014 Jan. 2; 5(2):205-9. doi: 10.1021/m1400496h. eCollection 2014. Discovery and development of potent and selective inhibitors of histone methyltransferase g9a.) […]

Molecules are shown by their SMILES. Some entries of the source have several records that differ or are many. The other results are left out here. An entry can have further records. Results that share an entry read as repeated measurements (runs, samples, wells or individuals).

For `COc1cc2c3c(c(NC4CCCC(O)C4)nc2cc1OCCCN1CCCC1)CCC3` (racemic), the IC50 is 73 nM and 160 nM.
